Source: the supplement of paper PMC7666118
The other results are listed elsewhere or left out.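 Rule for the calls: active = dose-dependent thermal stabilisation significant by F-test of dose-response against flat model at 10% FDR; inactive = not significant.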

Protein sequences, listed by entry. Tags and fused reporters are not part of them. Lines headed by an entry give the natural chain unless they say otherwise; changes in a name come on top.
UniProt O60566, whole entry: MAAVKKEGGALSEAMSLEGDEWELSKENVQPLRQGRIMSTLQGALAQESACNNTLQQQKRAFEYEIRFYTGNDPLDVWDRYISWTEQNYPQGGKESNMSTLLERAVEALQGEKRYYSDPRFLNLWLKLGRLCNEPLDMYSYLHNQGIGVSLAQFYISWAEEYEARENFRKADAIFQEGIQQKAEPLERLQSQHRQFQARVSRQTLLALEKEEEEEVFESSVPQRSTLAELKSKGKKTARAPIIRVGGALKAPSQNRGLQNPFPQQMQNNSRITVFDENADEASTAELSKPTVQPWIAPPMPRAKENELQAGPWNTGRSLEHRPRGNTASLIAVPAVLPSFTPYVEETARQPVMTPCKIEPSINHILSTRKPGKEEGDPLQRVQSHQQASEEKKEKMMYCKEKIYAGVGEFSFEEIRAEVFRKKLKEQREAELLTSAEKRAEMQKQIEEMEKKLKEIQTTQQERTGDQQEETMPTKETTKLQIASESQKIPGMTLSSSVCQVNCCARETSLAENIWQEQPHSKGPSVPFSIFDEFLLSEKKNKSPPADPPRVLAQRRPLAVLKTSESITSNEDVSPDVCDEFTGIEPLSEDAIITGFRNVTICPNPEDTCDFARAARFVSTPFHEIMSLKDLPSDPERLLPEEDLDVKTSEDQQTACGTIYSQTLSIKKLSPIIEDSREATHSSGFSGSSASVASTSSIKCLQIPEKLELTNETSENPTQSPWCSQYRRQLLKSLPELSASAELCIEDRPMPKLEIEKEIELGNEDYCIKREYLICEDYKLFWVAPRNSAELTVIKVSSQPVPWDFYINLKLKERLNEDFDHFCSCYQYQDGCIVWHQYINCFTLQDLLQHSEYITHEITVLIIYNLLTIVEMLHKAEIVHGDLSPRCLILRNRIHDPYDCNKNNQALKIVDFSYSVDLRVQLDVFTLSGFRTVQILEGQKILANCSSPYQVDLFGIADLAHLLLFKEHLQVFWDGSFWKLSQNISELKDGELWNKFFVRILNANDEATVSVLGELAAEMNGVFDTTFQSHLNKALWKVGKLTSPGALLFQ
UniProt P35219: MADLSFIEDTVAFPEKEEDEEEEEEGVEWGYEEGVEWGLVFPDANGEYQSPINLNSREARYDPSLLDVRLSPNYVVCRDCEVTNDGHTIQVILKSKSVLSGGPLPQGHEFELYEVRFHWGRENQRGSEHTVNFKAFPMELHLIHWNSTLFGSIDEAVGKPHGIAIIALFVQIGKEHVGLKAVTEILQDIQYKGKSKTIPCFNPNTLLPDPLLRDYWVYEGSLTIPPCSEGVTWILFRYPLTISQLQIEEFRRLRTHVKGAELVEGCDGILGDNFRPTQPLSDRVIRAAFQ
UniProt Q86YS7: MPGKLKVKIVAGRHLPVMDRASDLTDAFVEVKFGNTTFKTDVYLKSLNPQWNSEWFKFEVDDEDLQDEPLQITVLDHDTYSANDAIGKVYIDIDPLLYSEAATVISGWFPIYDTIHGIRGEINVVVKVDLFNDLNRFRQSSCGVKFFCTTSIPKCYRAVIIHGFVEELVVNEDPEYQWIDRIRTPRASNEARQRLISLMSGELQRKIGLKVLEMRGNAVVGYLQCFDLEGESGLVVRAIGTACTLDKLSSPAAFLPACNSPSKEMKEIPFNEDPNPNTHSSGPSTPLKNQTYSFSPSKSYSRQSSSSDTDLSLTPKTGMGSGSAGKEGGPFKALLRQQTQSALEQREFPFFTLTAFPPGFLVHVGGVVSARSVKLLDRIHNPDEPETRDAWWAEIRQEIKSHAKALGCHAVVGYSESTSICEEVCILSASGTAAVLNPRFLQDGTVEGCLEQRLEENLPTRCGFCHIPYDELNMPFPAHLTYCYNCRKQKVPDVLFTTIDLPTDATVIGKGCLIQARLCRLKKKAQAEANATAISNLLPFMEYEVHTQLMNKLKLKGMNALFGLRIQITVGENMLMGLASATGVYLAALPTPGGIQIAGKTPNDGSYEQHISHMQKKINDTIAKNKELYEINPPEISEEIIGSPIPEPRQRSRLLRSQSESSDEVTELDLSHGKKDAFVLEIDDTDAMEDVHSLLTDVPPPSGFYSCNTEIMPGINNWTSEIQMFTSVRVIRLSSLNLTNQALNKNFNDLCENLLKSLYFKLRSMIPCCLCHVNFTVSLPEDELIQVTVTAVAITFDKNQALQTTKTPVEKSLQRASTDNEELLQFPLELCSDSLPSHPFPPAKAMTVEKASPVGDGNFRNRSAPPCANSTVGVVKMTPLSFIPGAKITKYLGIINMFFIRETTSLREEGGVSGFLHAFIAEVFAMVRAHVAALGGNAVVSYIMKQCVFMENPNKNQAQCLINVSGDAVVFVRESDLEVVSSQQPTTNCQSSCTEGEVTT
UniProt Q9UBL0: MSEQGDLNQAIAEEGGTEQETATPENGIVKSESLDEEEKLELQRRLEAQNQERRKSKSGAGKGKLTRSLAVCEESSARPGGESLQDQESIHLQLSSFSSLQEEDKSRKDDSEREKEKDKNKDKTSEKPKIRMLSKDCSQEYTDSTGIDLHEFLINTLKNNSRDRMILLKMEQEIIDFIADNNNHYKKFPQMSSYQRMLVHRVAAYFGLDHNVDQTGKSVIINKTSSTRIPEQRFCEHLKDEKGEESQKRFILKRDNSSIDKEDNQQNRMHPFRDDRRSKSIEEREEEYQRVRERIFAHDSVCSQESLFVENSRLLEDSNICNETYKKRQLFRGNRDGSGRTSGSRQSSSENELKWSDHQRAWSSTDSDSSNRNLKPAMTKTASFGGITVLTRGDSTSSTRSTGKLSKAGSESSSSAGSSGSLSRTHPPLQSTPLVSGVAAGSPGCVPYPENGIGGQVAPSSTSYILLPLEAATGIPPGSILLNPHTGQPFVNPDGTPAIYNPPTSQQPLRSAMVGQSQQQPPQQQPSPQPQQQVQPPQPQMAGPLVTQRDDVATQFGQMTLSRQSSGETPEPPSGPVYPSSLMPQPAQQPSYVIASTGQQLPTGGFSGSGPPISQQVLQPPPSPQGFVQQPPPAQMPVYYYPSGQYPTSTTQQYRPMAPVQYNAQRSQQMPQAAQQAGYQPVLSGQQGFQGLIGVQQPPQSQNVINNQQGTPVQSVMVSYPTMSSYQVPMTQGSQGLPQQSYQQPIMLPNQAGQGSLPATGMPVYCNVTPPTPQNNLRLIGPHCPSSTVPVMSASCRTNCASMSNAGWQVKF
UniProt O43709: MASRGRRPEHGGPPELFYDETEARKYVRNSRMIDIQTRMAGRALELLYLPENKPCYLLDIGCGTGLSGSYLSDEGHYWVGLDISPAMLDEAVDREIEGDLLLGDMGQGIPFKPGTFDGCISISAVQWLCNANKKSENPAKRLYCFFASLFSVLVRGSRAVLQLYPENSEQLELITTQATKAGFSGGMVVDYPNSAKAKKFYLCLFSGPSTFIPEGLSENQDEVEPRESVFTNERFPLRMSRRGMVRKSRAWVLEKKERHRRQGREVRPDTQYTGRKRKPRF
UniProt Q9BVC5: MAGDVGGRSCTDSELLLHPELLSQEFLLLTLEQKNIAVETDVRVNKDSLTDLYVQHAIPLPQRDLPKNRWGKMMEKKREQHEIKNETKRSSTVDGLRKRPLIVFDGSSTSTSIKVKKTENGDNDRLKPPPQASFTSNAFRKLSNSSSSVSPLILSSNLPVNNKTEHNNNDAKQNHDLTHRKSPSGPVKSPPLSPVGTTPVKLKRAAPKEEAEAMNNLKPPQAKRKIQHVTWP
UniProt Q7Z6I6: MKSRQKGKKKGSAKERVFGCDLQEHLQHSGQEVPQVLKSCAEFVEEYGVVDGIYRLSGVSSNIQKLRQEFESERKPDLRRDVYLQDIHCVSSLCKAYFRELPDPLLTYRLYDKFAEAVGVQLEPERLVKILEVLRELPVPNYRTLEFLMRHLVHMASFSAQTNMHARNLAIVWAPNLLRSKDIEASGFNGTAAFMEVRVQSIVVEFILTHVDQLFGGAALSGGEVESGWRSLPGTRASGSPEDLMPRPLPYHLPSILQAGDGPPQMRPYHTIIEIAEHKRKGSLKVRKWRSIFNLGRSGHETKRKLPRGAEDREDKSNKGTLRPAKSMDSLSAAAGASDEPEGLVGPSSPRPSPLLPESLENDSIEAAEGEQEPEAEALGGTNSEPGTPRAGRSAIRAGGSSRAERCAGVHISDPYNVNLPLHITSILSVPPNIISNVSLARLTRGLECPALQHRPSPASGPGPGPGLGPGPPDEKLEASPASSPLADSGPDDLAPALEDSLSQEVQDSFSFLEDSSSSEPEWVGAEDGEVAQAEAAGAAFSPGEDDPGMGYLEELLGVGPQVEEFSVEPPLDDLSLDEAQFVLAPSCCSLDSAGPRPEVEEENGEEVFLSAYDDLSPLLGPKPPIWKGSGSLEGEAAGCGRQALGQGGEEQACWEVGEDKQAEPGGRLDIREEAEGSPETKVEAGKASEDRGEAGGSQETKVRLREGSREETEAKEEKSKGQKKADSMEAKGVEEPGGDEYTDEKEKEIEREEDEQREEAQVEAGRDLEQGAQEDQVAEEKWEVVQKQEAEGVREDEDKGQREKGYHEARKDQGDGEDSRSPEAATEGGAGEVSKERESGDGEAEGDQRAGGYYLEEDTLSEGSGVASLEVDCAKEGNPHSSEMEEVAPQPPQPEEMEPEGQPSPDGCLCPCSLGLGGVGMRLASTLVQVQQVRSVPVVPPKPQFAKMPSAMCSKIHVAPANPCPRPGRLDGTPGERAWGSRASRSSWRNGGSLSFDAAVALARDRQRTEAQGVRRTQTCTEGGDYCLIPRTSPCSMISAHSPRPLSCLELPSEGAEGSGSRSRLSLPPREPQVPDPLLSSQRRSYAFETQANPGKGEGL

Compound: Nc1nc2c(ncn2[C@@H]2O[C@H](COP(=O)(O)OP(=O)(O)OP(=O)(O)O)[C@@H](O)[C@H]2O)c(=O)[nH]1
Assay: dose-dependent thermal stabilisation call (2D-TPP, DLPTP, 10% FDR) (binary (1 = stabilised)); higher = stabilised by the compound
Conditions: system: Jurkat gel-filtered lysate; concentration range 1-500 µM

dose-dependent thermal stabilisation call, inactive:
BUB1B (UniProt O60566) 0
CAMKMT (UniProt Q7Z624) 0
CA8 (UniProt P35219) 0
C2CD5 (UniProt Q86YS7) 0
ARPP21 (UniProt Q9UBL0) 0
BUD23 (UniProt O43709) 0
CALM1 (UniProt P0DP23) 0
C2orf49 (UniProt Q9BVC5) 0
ARHGAP30 (UniProt Q7Z6I6) 0
